Assay results reported in PubChem BioAssay AID248 (DTP/NCI, 2004).
The list does not hold the whole screen: it gathers tests that were run many times, whatever their T/C, doses with no T/C, and many T/C values between a quarter and a half above the control. Other doses and runs of a compound stand elsewhere. T/C gives the treated animals as a percentage of the vehicle group. Some entries give survivors of the animals treated and no T/C: the source files T/C as zero there, which appears to mark a toxic dose or a test without result, not a measured value. Some survivor counts are full or nearly so, which does not show that the dose was tolerated: survival well below the control is almost never listed, so the zero probably covers shortened survival too. Counts of survivors are from the toxicity check (mostly the fifth day) where no day follows; animals may have died later. Schedules are NCI's codes, read here as Q, the interval in days (D) or hours (H), X, the number of doses. Some schedules carry Z or #; the key to these is not given. Some entries were tested several times; their values stand side by side, smallest first. Where survival is the endpoint, the PubChem record calls one and a half times the control and up active, and a quarter to a half above the control has no call in these data; cut-offs in other NCI protocols can differ. Some T/C values are followed by the survivors on the day toxicity was checked, most often the fifth; where none is given, no animal had died by that day. Additions like (4×) say how often a value occurs here.

Test system: L1210 leukemia ip in BDF1 mice, survival T/C
Experiment: NCI In Vivo Anticancer Drug Screen. Data for tumor model L1210 Leukemia (intraperitoneal) in B6D2F1 (BDF1) mice
Conditions: T/C endpoint: mean survival time, higher T/C = longer survival
[1] = dose: 3.2 mg/kg/injection, schedule: Q01DX013 (ip), vehicle: saline

COC(C(=O)C(O)C(C)O)C1Cc2cc3cc(OC4CC(OC(C)=O)C(OC5CC(O)C(OC)C(C)O5)C(C)O4)cc(O)c3c(O)c2C(=O)C1OC1CC(OC2CC(OC3CC(C)(O)C(OC(=O)C(C)C)C(C)O3)C(O)C(C)O2)C(O)C(C)O1 (stereo not drawn)
T/C (dose: 0.37 mg/kg/injection, schedule: Q01DX017 (ip), vehicle: carboxymethylcellulose (CMC)): 128 % of control | T/C (dose: 0.4 mg/kg/injection, schedule: Q01DX013 (ip), vehicle: saline): 104, 107, 109, 123, 125 % of control | T/C (dose: 0.5 mg/kg/injection, schedule: Q01DX009 (ip), vehicle: saline with Tween-80): 130 % of control | T/C (dose: 0.5 mg/kg/injection, schedule: Q01DX009 (ip), vehicle: saline): 125 and 131 % of control | T/C (dose: 0.5 mg/kg/injection, schedule: Q01DX015 (ip), vehicle: carboxymethylcellulose (CMC)): 127 % of control | T/C (dose: 0.5 mg/kg/injection, schedule: Q01DX017 (ip), vehicle: carboxymethylcellulose (CMC)): 140 % of control | T/C (dose: 0.5 mg/kg/injection, schedule: Q#A X034 (ip), vehicle: carboxymethylcellulose (CMC)): 125 % of control | T/C (dose: 0.75 mg/kg/injection, schedule: Q01DX010 (ip), vehicle: saline): 129 % of control | T/C (dose: 0.75 mg/kg/injection, schedule: Q01DX017 (ip), vehicle: carboxymethylcellulose (CMC)): 137 % of control | T/C (dose: 0.75 mg/kg/injection, schedule: Q02DX009 (ip), vehicle: carboxymethylcellulose (CMC)): 126 % of control | T/C (dose: 0.8 mg/kg/injection, schedule: Q01DX013 (ip), vehicle: saline): 119 (2×), 120, 140 [5 of 6 alive], 141 % of control | T/C (dose: 0.8 mg/kg/injection, schedule: Q01DX015 (ip), vehicle: carboxymethylcellulose (CMC)): 127 % of control | T/C (dose: 1.0 mg/kg/injection, schedule: Q01DX009 (ip), vehicle: other): 128 % of control | T/C (dose: 1.0 mg/kg/injection, schedule: Q01DX009 (ip), vehicle: saline): 133 and 140 % of control | T/C (dose: 1.0 mg/kg/injection, schedule: Q01DX015 (ip), vehicle: carboxymethylcellulose (CMC)): 141 % of control | survivor count (dose: 1.0 mg/kg/injection, schedule: Q## X016 (ip), vehicle: carboxymethylcellulose (CMC)): 10 of 10 | T/C (dose: 1.5 mg/kg/injection, schedule: Q01DX010 (ip), vehicle: saline): 132 % of control | T/C (dose: 1.5 mg/kg/injection, schedule: Q01DX017 (ip), vehicle: carboxymethylcellulose (CMC)): 143 % of control | T/C (dose: 1.5 mg/kg/injection, schedule: Q## X003 (ip), vehicle: saline): 129 % of control | T/C (dose: 1.5 mg/kg/injection, schedule: Q## X005 (ip), vehicle: carboxymethylcellulose (CMC)): 137 % of control | T/C (dose: 1.6 mg/kg/injection, schedule: Q01DX013 (ip), vehicle: saline): 127, 131, 145 % of control | T/C (dose: 1.6 mg/kg/injection, schedule: Q01DX015 (ip), vehicle: carboxymethylcellulose (CMC)): 146 % of control | T/C (dose: 1.8 mg/kg/injection, schedule: Q01DX001 (ip), vehicle: saline): 130 % of control | T/C (dose: 2.0 mg/kg/injection, schedule: Q01DX009 (ip), vehicle: carboxymethylcellulose (CMC)): 131 % of control | T/C (dose: 2.0 mg/kg/injection, schedule: Q01DX009 (ip), vehicle: saline): 133 % of control | survivor count (dose: 2.0 mg/kg/injection, schedule: Q#A X034 (ip), vehicle: carboxymethylcellulose (CMC)): 5 of 6 | T/C (dose: 2.7 mg/kg/injection, schedule: Q01DX001 (ip), vehicle: saline): 126 % of control | T/C (dose: 3.0 mg/kg/injection, schedule: Q01DX010 (ip), vehicle: saline): 141 % of control | T/C (dose: 3.0 mg/kg/injection, schedule: Q02DX005 (ip), vehicle: saline): 143 % of control | T/C (dose: 3.0 mg/kg/injection, schedule: Q## X003 (ip), vehicle: saline): 143 % of control | T/C [1]: 90, 115, 125, 156 % of control | survivor count [1]: 3 of 6 | T/C (dose: 4.0 mg/kg/injection, schedule: Q01DX001 (ip), vehicle: carboxymethylcellulose (CMC)): 136 % of control | T/C (dose: 4.0 mg/kg/injection, schedule: Q01DX001 (ip), vehicle: saline): 129 and 130 % of control | survivor count (dose: 4.0 mg/kg/injection, schedule: Q01DX005 (ip), vehicle: carboxymethylcellulose (CMC)): 7 of 10 | survivor count (dose: 4.0 mg/kg/injection, schedule: Q01DX009 (ip), vehicle: saline with Tween-80): 4 of 6 | survivor count (dose: 4.0 mg/kg/injection, schedule: Q01DX009 (ip), vehicle: saline): 0 of 6 and 3 of 6 | survivor count (dose: 4.0 mg/kg/injection, schedule: Q01DX015 (ip), vehicle: carboxymethylcellulose (CMC)): 8 of 10 | T/C (dose: 4.0 mg/kg/injection, schedule: Q01DX017 (ip), vehicle: carboxymethylcellulose (CMC)): 128 % of control | survivor count (dose: 4.0 mg/kg/injection, schedule: Q01DX Z (ip), vehicle: saline): 6 of 6 | T/C (dose: 4.0 mg/kg/injection, schedule: Q## X003 (ip), vehicle: carboxymethylcellulose (CMC)): 131 % of control [9 of 10 alive] | T/C (dose: 4.0 mg/kg/injection, schedule: Q## X024 (ip), vehicle: carboxymethylcellulose (CMC)): 139 % of control [9 of 10 alive] | survivor count (dose: 4.0 mg/kg/injection, schedule: Q#A X034 (ip), vehicle: carboxymethylcellulose (CMC)): 0 of 6 | T/C (dose: 5.0 mg/kg/injection, schedule: Q01DX001 (ip), vehicle: saline): 132 % of control | T/C (dose: 6.0 mg/kg/injection, schedule: Q01DX001 (ip), vehicle: carboxymethylcellulose (CMC)): 136 % of control | T/C (dose: 6.0 mg/kg/injection, schedule: Q01DX001 (ip), vehicle: saline): 129 and 134 % of control | survivor count (dose: 6.0 mg/kg/injection, schedule: Q01DX010 (ip), vehicle: saline): 1 of 6 | T/C (dose: 6.0 mg/kg/injection, schedule: Q02DX005 (ip), vehicle: saline): 129 % of control | T/C (dose: 6.0 mg/kg/injection, schedule: Q## X003 (ip), vehicle: saline): 143 % of control | survivor count (dose: 6.4 mg/kg/injection, schedule: Q01DX015 (ip), vehicle: carboxymethylcellulose (CMC)): 0 of 6 | survivor count (dose: 8.0 mg/kg/injection, schedule: Q01DX001 (ip), vehicle: saline): 0 of 4, 0 of 6, 3 of 6 | survivor count (dose: 8.0 mg/kg/injection, schedule: Q01DX005 (ip), vehicle: carboxymethylcellulose (CMC)): 4 of 10 | survivor count (dose: 8.0 mg/kg/injection, schedule: Q01DX006 (iv), vehicle: carboxymethylcellulose (CMC)): 1 of 10 | survivor count (dose: 8.0 mg/kg/injection, schedule: Q01DX009 (ip), vehicle: saline): 0 of 6 and 1 of 6 | survivor count (dose: 8.0 mg/kg/injection, schedule: Q01DX015 (im), vehicle: carboxymethylcellulose (CMC)): 1 of 10 | survivor count (dose: 8.0 mg/kg/injection, schedule: Q01DX015 (ip), vehicle: carboxymethylcellulose (CMC)): 0 of 10 | survivor count (dose: 8.0 mg/kg/injection, schedule: Q01DX015 (sc), vehicle: carboxymethylcellulose (CMC)): 1 of 10 | survivor count (dose: 8.0 mg/kg/injection, schedule: Q01DX017 (ip), vehicle: carboxymethylcellulose (CMC)): 0 of 6 | survivor count (dose: 8.0 mg/kg/injection, schedule: Q02DX009 (ip), vehicle: carboxymethylcellulose (CMC)): 3 of 5 | survivor count (dose: 8.0 mg/kg/injection, schedule: Q## X005 (ip), vehicle: carboxymethylcellulose (CMC)): 2 of 6 | survivor count (dose: 8.0 mg/kg/injection, schedule: Q## X008 (ip), vehicle: carboxymethylcellulose (CMC)): 1 of 10 | survivor count (dose: 8.0 mg/kg/injection, schedule: Q## X016 (ip), vehicle: carboxymethylcellulose (CMC)): 3 of 10 | survivor count (dose: 10.0 mg/kg/injection, schedule: Q01DX001 (ip), vehicle: saline): 1 of 4 | survivor count (dose: 16.0 mg/kg/injection, schedule: Q01DX001 (ip), vehicle: carboxymethylcellulose (CMC)): 1 of 6 | survivor count (dose: 16.0 mg/kg/injection, schedule: Q01DX001 (ip), vehicle: saline): 0 of 6 | survivor count (dose: 16.0 mg/kg/injection, schedule: Q02DX009 (ip), vehicle: carboxymethylcellulose (CMC)): 0 of 6 | survivor count (dose: 16.0 mg/kg/injection, schedule: Q## X005 (ip), vehicle: carboxymethylcellulose (CMC)): 1 of 6 | survivor count (dose: 20.0 mg/kg/injection, schedule: Q01DX001 (ip), vehicle: saline): 0 of 4 | survivor count (dose: 32.0 mg/kg/injection, schedule: Q01DX001 (ip), vehicle: carboxymethylcellulose (CMC)): 1 of 6 | survivor count (dose: 32.0 mg/kg/injection, schedule: Q## X005 (ip), vehicle: carboxymethylcellulose (CMC)): 0 of 6 | survivor count (dose: 40.0 mg/kg/injection, schedule: Q01DX001 (ip), vehicle: saline): 0 of 4 | survivor count (dose: 50.0 mg/kg/injection, schedule: Q01DX001 (ip), vehicle: saline): 0 of 4 | survivor count (dose: 64.0 mg/kg/injection, schedule: Q01DX001 (ip), vehicle: carboxymethylcellulose (CMC)): 0 of 6 | survivor count (dose: 80.0 mg/kg/injection, schedule: Q01DX001 (ip), vehicle: saline): 0 of 4 | survivor count (dose: 100.0 mg/kg/injection, schedule: Q01DX001 (ip), vehicle: saline): 0 of 4 | survivor count (dose: 200.0 mg/kg/injection, schedule: Q01DX001 (ip), vehicle: saline): 0 of 4 | survivor count (dose: 400.0 mg/kg/injection, schedule: Q01DX001 (ip), vehicle: saline): 0 of 4 | T/C (dose: 500.0 micrograms/kg/injection, schedule: Q01DX Z (ip), vehicle: saline): 131 % of control
